Measurements taken from patent US20260022160A1 (AFFYXELL THERAPEUTICS, published 2026).
Residue numbers refer to the chain shown, from its start. These are yes or no findings as the source states them, for the method shown. Some entries that bind do so weakly or less than the wild type.

T1: human CD40L (human, UniProt P29965 113-261, limits assumed)
T1 sequence (looked up): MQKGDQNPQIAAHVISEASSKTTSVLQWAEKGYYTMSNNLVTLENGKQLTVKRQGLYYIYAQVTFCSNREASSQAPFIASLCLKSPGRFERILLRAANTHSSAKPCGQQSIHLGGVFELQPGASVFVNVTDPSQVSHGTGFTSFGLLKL

B1: stefin A protein variant clone 331 (designed binder)
chain: MIPGGLSEAKPATPEIQEIVDKVKPQLEEKTGETYGKLEAVQYKTQVVLDQHHVYQVGTNYYIKVRAGDNKYMHLKVFKSLALLIHHDPWEDLVLTGYQVDKNKDDELTGF
B2: stefin A protein variant clone 332 (designed binder)
chain: MIPGGLSEAKPATPEIQEIVDKVKPQLEEKTGETYGKLEAVQYKTQVVLEDVWGVWAGTNYYIKVRAGDNKYMHLKVFKSLEFQHRTFNHEDLVLTGYQVDKNKDDELTGF
B3: stefin A protein variant clone 333 (designed binder)
chain: MIPGGLSEAKPATPEIQEIVDKVKPQLEEKTGETYGKLEAVQYKTQVVWLPWTVELIGTNYYIKVRAGDNKYMHLKVFKSLGEIWSAKHKEDLVLTGYQVDKNKDDELTGF
B4: stefin A protein variant clone 334 (designed binder)
chain: MIPGGLSEAKPATPEIQEIVDKVKPQLEEKTGETYGKLEAVKYKTQVVQHFTWDWFWGTNYYIKVRAGDNKYMHLKVFKSLPEYKPVDHTEDLVLTGYQVDKNKDDELTGF
B5: stefin A protein variant clone 335 (designed binder)
chain: MIPGGLSEAKPATPEIQEIVDKVKPQLEEKTGETYGKLEAVQYKTQVVLFEVLQGSSGTNYYIKVRAGDNKYMHLKVFKSLGEIVWYQVEEDLVLTGYQVDKNKDDELTGF
B6: stefin A protein variant clone 336 (designed binder)
chain: MIPGGLSEAKPATPEIQEIVDKVKPQLEEKTGETYGKLEAVQYKTQVVPYSWQHEVVGTNYYIKVRAGDNKYMHLKVFKSLIVFYLQEYYEEDLVLTGYQVDKNKDDELTGF
B7: stefin A protein variant clone 337 (designed binder)
chain: MIPGGLSEAKPATPEIQEIVDKVKPQLEEKTGETYGKLEAVQYKTQVVWWQENAEWIGTNYYIKVRAGDNKYMHLKVFKSLGYAVFHKYLEDLVLTGYQVDKNKDDELTGF
B8: stefin A protein variant clone 338 (designed binder)
chain: MIPGGLSEAKPATPEIQEIVDKVKPQLEEKTGETYGKLEAVQYKTQVVSYDPVYQDTGTNYYIKVRAGDNKYMHLKVFKSLFFHRTSVVYEDLVLTGYQVDKNKDDELTGF
B9: stefin A protein variant clone 339 (designed binder)
chain: MIPGGLSEAKPATPEIQEIVDKVKPQLEEKTGETYGKLEAVQYKTQVVRVFDTPLAAGTNYYIKVRAGDNKYMHLKVFKSLPWQYRNNPEEDLVLTGYQVDKNKDDELTGF
B10: stefin A protein variant clone 340 (designed binder)
chain: MIPGGLSEAKPATPEIQEIVDKVKPQLEEKTGETYGKLEAVQYKTQVVWWDIPWIWVGTNYYIKVRAGDNKYMHLKVFKSLQNDELYPYKEDLVLTGYQVDKNKDDELTGF
B11: stefin A protein variant clone 341 (designed binder)
chain: MIPGGLSEAKPATPEIQEIVDKVKPQLEEKTGETYGKLEAVQYKTQVVYQKVITWWQGTNYYIKVRAGDNKYMHLKVFKSLYWENHRGHVEDLVLTGYQVDKNKDDELTGF
B12: stefin A protein variant clone 342 (designed binder)
chain: MIPGGLSEAKPATPEIQEIVDKVKPQLEEKTGETYGKLEAVQYKTQVVQWIKWGNILGTNYYIKVRAGDNKYMHLKVFKSLYEAIERWHGEDLVLTGYQVDKNKDDELTGF
B13: stefin A protein variant clone 343 (designed binder)
chain: MIPGGLSEAKPATPEIQEIVDKVKPQLEEKTGETYGKLEAVQYKTQVVATPEKKYVVGTNYYIKVRAGDNKYMHLKVFKSLWNANILRYWEDLVLTGYQVDKNKDDELTGF
B14: stefin A protein variant clone 344 (designed binder)
chain: MIPGGLSEAKPATPEIQEIVDKVKPQLEEKTGETYGKLEAVQYKTQVVTSERLWILYGTNYYIKVRAGDNKYMHLKVFKSLTPRYVPLNPEDLVLTGYQVDKNKDDELTGF
B15: stefin A protein variant clone 345 (designed binder)
chain: MIPGGLSEAKPATPEIQEIVDKVKPQLEEKTGETYGKLEAVQYKTQVVEHHSQPLAHGTNYYIKVRAGDNKYMHLKVFKSLPYHAFDWYWEDLVLTGYQVDKNKDDELTGF
B16: stefin A protein variant clone 346 (designed binder)
chain: MIPGGLSEAKPATPEIQEIVDKVKPQLEEKTGETYGKLEAVQYKTQVVWTADWLWTVGTNYYIKVRAGDNKYMHLKVFKSLYDPSEWFPREDLVLTGYQVDKNKDDELTGF
B17: stefin A protein variant clone 347 (designed binder)
chain: MIPGGLSEAKPATPEIQEIVDKVKPQLEEKTGETYGKLEAVQYKTQVVSFQREHYSWGTNYYIKVRAGDNKYMHLKVFKSLFDIFYFNPIEDLVLTGYQVDKNKDDELTGF
B18: stefin A protein variant clone 348 (designed binder)
chain: MIPGGLSEAKPATPEIQEIVDKVKPQLEEKTGETYGKLEAVQYKTQVVGKTWHKHNRGTNYYIKVRAGDNKYMHLKVFKSLNLYFFFYQTEDLVLTGYQVDKNKDDELTGF
B19: stefin A protein variant clone 227 (designed binder)
chain: MIPGGLSEAKPATPEIQEIVDKVKPQLEEKTGETYGKLEAVQYKTQVVHDVFYDQKAGTNYYIKVRAGDNKYMHLKVFKSLKWWYRIGNPEDLVLTGYQVDKNKDDELTGF
B20: stefin A protein variant clone 228 (designed binder)
chain: MIPGGLSEAKPATPEIQEIVDKVKPQLEEKTGETYGKLEAVQYKTQVVPFKIITVWHGTNYYIKVRAGDNKYMHLKVFKSLLERFNFHGEEDLVLTGYQVDKNKDDELTGF
B21: stefin A protein variant clone 229 (designed binder)
chain: B11 chain with Y49Q, Q50Y, V52I, Q57S, Y82V, W83Y, E84K, H86K, H89G, V90H
B22: stefin A protein variant clone 231 (designed binder)
chain: MIPGGLSEAKPATPEIQEIVDKVKPQLEEKTGETYGKLEAVQYKTQVVYYQIITWWQGTNYYIKVRAGDNKYMHLKVFKSLGIRKKQQQREDLVLTGYQVDKNKDDELTGF
B23: stefin A protein variant clone 230 (designed binder)
chain: MIPGGLSEAKPATPEIQEIVDKVKPQLEEKTGETYGKLEAVQYKTQVVHYYVHYNDQGTNYYIKVRAGDNKYMHLKVFKSLWGENLFAKWEDLVLTGYQVDKNKDDELTGF
B24: stefin A protein variant clone 232 (designed binder)
chain: MIPGGLSEAKPATPEIQEIVDKVKPQLEEKTGETYGKLEAVQYKTQVVVHGPHLEQAGTNYYIKVRAGDNKYMHLKVFKSLGHAFYFAFVEDLVLTGYQVDKNKDDELTGF
B25: stefin A protein variant clone 233 (designed binder)
chain: MIPGGLSEAKPATPEIQEIVDKVKPQLEEKTGETYGKLEAVQYKTQVVLQDQWPWRDGTNYYIKVRAGDNKYMHLKVFKSLTYGKKWYSWEDLVLTGYQVDKNKDDELTGF

These binders were tested against T1, human CD40L (assay: ELISA, bacterial lysate on plate-bound human CD40L, anti-Myc tag detection).

binding, binds:
B1
B2
B3
B4
B5
B6
B7
B8
B9
B10
B11
B12
B13
B14
B15
B16
B17
B18
B19
B20
B21
B22
B23
B24
B25
